{"source": "PubChem BioAssay AID1224826 | NIAID – 2016", "assay": "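Knock-downs that raise or lower Tnf reporter signal after endotoxin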 (primary screen)", "system": "RAW264.7 G9 macrophages from mouse bearing reporters for p65 (GFP) and the Tnf promoter (mCherry)", "reagent": "siRNA pool against mouse genes, 100 nM", "duration": "16 h of LPS stimulation, after 2 days of siRNA transfection", "treatment": "bacterial lipopolysaccharide (Salmonella minnesota R595), 10 ng/ml", "read-out": "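Nuclear mCherry signal of the Tnf promoter reporter measured by imaging after background removal, scaled to each plate median and turned into robust z-scores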", "direction": "Tnf reporter robust z-score: higher = stronger Tnf promoter reporter signal after LPS", "call rule": "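Called active when robust z-score is at most -1.3, matching the median of the Tlr4 knock-down control, or over 3; control wells and wells with under 50 cells never active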", "meaning of the calls": "active = Tnf reporter clearly lowered or raised; inactive = no clear change in Tnf reporter", "note": "Here is a random part of about 17,000 reagents. In the full data, about 1,110 (6.6%) got an active call. 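Active means lowered or raised reporter signal; replicate intensities are raw and not normalised per plate.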 A number with no mark means an inactive call. Not all columns of the deposit are shown."}
{"target": "Tram2 (translocating chain-associating membrane protein 2)", "Tnf reporter robust z-score": -0.62, "fewer than 50 cells in well": "enough cells in well"}
{"target": "Emd (emerin)", "Tnf reporter robust z-score": 0.61, "fewer than 50 cells in well": "enough cells in well"}
{"target": "Lysmd4 (LysM, putative peptidoglycan-binding, domain containing 4)", "fewer than 50 cells in well": "fewer than 50 cells per well; well left out of calls"}
{"target": "Cldn17 (claudin 17)", "Tnf reporter robust z-score": -0.37, "fewer than 50 cells in well": "enough cells in well"}
{"target": "Ssxb13 (SSX member B13)", "fewer than 50 cells in well": "fewer than 50 cells per well; well left out of calls"}
{"target": "Tusc2 (tumor suppressor 2, mitochondrial calcium regulator)", "fewer than 50 cells in well": "fewer than 50 cells per well; well left out of calls"}
{"target": "Or8s5 (olfactory receptor family 8 subfamily S member 5)", "Tnf reporter robust z-score": 0.67, "fewer than 50 cells in well": "enough cells in well"}
{"target": "Nbr1 (NBR1, autophagy cargo receptor)", "Tnf reporter robust z-score": 0.83, "fewer than 50 cells in well": "enough cells in well"}
{"target": "Eepd1", "fewer than 50 cells in well": "fewer than 50 cells per well; well left out of calls"}
{"target": "Ccl6 (C-C motif chemokine ligand 6)", "Tnf reporter robust z-score": "-1.69 (active)", "fewer than 50 cells in well": "enough cells in well"}
{"target": "Fbxl12 (F-box and leucine-rich repeat protein 12)", "Tnf reporter robust z-score": -1.15, "fewer than 50 cells in well": "enough cells in well"}
{"target": "Toe1 (target of EGR1, member 1 (nuclear))", "fewer than 50 cells in well": "fewer than 50 cells per well; well left out of calls"}
{"target": "Ly6c1 (lymphocyte antigen 6 family member C1)", "Tnf reporter robust z-score": -0.09, "fewer than 50 cells in well": "enough cells in well"}
{"target": "Golt1a (golgi transport 1A)", "Tnf reporter robust z-score": 1.4, "fewer than 50 cells in well": "enough cells in well"}
{"target": "Trpv2", "Tnf reporter robust z-score": 0.05, "fewer than 50 cells in well": "enough cells in well"}
{"target": "Vmn1r180 (vomeronasal 1 receptor 180)", "Tnf reporter robust z-score": -0.41, "fewer than 50 cells in well": "enough cells in well"}
{"target": "Prpf38a", "fewer than 50 cells in well": "fewer than 50 cells per well; well left out of calls"}
{"target": "Mettl14 (methyltransferase 14, N6-adenosine-methyltransferase subunit)", "Tnf reporter robust z-score": -1.14, "fewer than 50 cells in well": "enough cells in well"}
{"target": "Zfp1 (zinc finger protein 1)", "Tnf reporter robust z-score": -0.37, "fewer than 50 cells in well": "enough cells in well"}
{"target": "Tm9sf4 (transmembrane 9 superfamily member 4)", "fewer than 50 cells in well": "fewer than 50 cells per well; well left out of calls"}
{"target": "Nsmce1 (NSE1 homolog, SMC5-SMC6 complex component)", "Tnf reporter robust z-score": 0.44, "fewer than 50 cells in well": "enough cells in well"}
